Measurements as given in publication PMC7396870.
No constants are given. Whether binding was seen depends on the method and setting. Binding seen in cells or lysates may run through a third protein. Some results given as binding are weak or reduced against the parent protein; the word gives no strength. Where a sequence is shown, tags or fusion partners need not be part of it.

Chains of the proteins cited; added tags and fusions are not shown. Residues count along the entry.
UniProt P42260, residues 32-908: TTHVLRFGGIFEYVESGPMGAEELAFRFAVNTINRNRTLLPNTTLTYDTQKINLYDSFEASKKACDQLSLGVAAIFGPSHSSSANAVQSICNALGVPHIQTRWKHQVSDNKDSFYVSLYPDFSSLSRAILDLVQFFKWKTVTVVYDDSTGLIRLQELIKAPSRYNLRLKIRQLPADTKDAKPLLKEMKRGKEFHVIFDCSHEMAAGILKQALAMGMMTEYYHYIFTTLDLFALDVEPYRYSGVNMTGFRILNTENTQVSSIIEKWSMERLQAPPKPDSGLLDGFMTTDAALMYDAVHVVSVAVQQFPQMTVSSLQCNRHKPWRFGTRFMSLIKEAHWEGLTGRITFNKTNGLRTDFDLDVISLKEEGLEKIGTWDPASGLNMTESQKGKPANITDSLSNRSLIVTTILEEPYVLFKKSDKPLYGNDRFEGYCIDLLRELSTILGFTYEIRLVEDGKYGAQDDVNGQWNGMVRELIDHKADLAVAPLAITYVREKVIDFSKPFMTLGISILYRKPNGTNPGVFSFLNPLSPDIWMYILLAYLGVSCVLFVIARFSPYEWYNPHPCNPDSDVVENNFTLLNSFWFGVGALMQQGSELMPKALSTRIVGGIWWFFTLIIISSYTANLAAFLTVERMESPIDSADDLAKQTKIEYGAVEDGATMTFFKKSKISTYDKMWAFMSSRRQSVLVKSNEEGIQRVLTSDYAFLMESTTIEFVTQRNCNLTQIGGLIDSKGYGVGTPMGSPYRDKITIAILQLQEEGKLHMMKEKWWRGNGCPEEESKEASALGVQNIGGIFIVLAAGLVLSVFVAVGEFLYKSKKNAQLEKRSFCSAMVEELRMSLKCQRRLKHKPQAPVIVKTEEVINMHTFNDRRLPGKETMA

B1: SEZ6 full length, HA- and 2xFlag-tagged (pFU HA-SLIC-Flagx2-mmSEZ6FL) (protein, UniProt Q7TSK2-1 20-991)
chain: LSSEAPITGEGHATGIRETDGELTAAPTPEQSDRGVHFVTTAPTLKLLNHHPLLEEFLQEGLEREEAPQPALPFQPDSPTHFTPSPLPRLTNQDNRPVFTSPTPAVAAAPTQPHSREKPWNLESKPPELSITSSLPPGPSMAVPTLLPEDRPSTTPPSQAWTPTQEGPGDMDRPWVPEVMSKTTGLGVEGTIATSTASGDDEETTTTIITTTVTTVQPPGPCSWNFSGPEGSLDSPTAPSSPSDVGLDCFYYISVYPGYGVEIKVENISLQEGETITVEGLGGPDPLPLANQSFLLRGQVIRSPTHQAALRFQSLPLPAGPGTFHFRYQAYLLSCHFPRRPAYGDVTVTSLHPGGSAHFHCATGYQLKGARFLTCLNATQPFWDSQEPVCIAACGGVIRNATTGRIVSPGFPGNYSNNLTCHWLLEAPESQRLHLHFEKVSLAEDDDRLIIRNGNNVEAPPVYDSYEVEYLPIEGLLSSGRHFFVEFSTDSSGAAAGMALRYEAFQQGHCYEPFVKYGNFSSSAPSYPVGTTVEFSCDPGYTLEQGSIIIECVDLHDPQWNETEPACRAVCSGEITDSAGVVLSPNWPEPYGRGQDCIWGVHVEEDKRIMLDIRVLRIGSGDVLTFYDGDDLTARVLGQYSGPRGHFKLFTSMADVTIQFQSDPGTSALGYQQGFVIHFFEVPRNDTCPELPEIPNGWKNPSQPELVHGTVVTYQCYPGYQVVGSSILMCQWDLSWSEDLPSCQRVTSCHDPGDVEHSRRLISSPKFPVGATVQYVCDQGFVLTGSAILTCHDRQAGSPKWSDRAPKCLLEQFKPCHGLSAPENGARSPEKRLHPAGATIHFSCAPGYVLKGQASIKCVPGHPSHWSDPPPICRAASLDGFYNGRSLDVAKAPAASSALDAAHLAAAIFLPLVAMVLLVGGVYLYFSRFQGKSPLQLPRTHPRPYNRITVESAFDNPTYETGSLSFAGDERI
B2: SEZ6 lacking the C-terminal 39 amino acids (pFU HA-SLIC-Flagx2-mmSEZ6Δcyto) (domain or fragment, UniProt Q7TSK2-1 20-952)
chain: LSSEAPITGEGHATGIRETDGELTAAPTPEQSDRGVHFVTTAPTLKLLNHHPLLEEFLQEGLEREEAPQPALPFQPDSPTHFTPSPLPRLTNQDNRPVFTSPTPAVAAAPTQPHSREKPWNLESKPPELSITSSLPPGPSMAVPTLLPEDRPSTTPPSQAWTPTQEGPGDMDRPWVPEVMSKTTGLGVEGTIATSTASGDDEETTTTIITTTVTTVQPPGPCSWNFSGPEGSLDSPTAPSSPSDVGLDCFYYISVYPGYGVEIKVENISLQEGETITVEGLGGPDPLPLANQSFLLRGQVIRSPTHQAALRFQSLPLPAGPGTFHFRYQAYLLSCHFPRRPAYGDVTVTSLHPGGSAHFHCATGYQLKGARFLTCLNATQPFWDSQEPVCIAACGGVIRNATTGRIVSPGFPGNYSNNLTCHWLLEAPESQRLHLHFEKVSLAEDDDRLIIRNGNNVEAPPVYDSYEVEYLPIEGLLSSGRHFFVEFSTDSSGAAAGMALRYEAFQQGHCYEPFVKYGNFSSSAPSYPVGTTVEFSCDPGYTLEQGSIIIECVDLHDPQWNETEPACRAVCSGEITDSAGVVLSPNWPEPYGRGQDCIWGVHVEEDKRIMLDIRVLRIGSGDVLTFYDGDDLTARVLGQYSGPRGHFKLFTSMADVTIQFQSDPGTSALGYQQGFVIHFFEVPRNDTCPELPEIPNGWKNPSQPELVHGTVVTYQCYPGYQVVGSSILMCQWDLSWSEDLPSCQRVTSCHDPGDVEHSRRLISSPKFPVGATVQYVCDQGFVLTGSAILTCHDRQAGSPKWSDRAPKCLLEQFKPCHGLSAPENGARSPEKRLHPAGATIHFSCAPGYVLKGQASIKCVPGHPSHWSDPPPICRAASLDGFYNGRSLDVAKAPAASSALDAAHLAAAIFLPLVAMVLLVGGVYLYFSRFQGKS
B3: SEZ6 ectodomain (pFU HA-SLIC-Flagx2-mmSEZ6ecto) (domain or fragment, UniProt Q7TSK2-1 20-909)
chain: LSSEAPITGEGHATGIRETDGELTAAPTPEQSDRGVHFVTTAPTLKLLNHHPLLEEFLQEGLEREEAPQPALPFQPDSPTHFTPSPLPRLTNQDNRPVFTSPTPAVAAAPTQPHSREKPWNLESKPPELSITSSLPPGPSMAVPTLLPEDRPSTTPPSQAWTPTQEGPGDMDRPWVPEVMSKTTGLGVEGTIATSTASGDDEETTTTIITTTVTTVQPPGPCSWNFSGPEGSLDSPTAPSSPSDVGLDCFYYISVYPGYGVEIKVENISLQEGETITVEGLGGPDPLPLANQSFLLRGQVIRSPTHQAALRFQSLPLPAGPGTFHFRYQAYLLSCHFPRRPAYGDVTVTSLHPGGSAHFHCATGYQLKGARFLTCLNATQPFWDSQEPVCIAACGGVIRNATTGRIVSPGFPGNYSNNLTCHWLLEAPESQRLHLHFEKVSLAEDDDRLIIRNGNNVEAPPVYDSYEVEYLPIEGLLSSGRHFFVEFSTDSSGAAAGMALRYEAFQQGHCYEPFVKYGNFSSSAPSYPVGTTVEFSCDPGYTLEQGSIIIECVDLHDPQWNETEPACRAVCSGEITDSAGVVLSPNWPEPYGRGQDCIWGVHVEEDKRIMLDIRVLRIGSGDVLTFYDGDDLTARVLGQYSGPRGHFKLFTSMADVTIQFQSDPGTSALGYQQGFVIHFFEVPRNDTCPELPEIPNGWKNPSQPELVHGTVVTYQCYPGYQVVGSSILMCQWDLSWSEDLPSCQRVTSCHDPGDVEHSRRLISSPKFPVGATVQYVCDQGFVLTGSAILTCHDRQAGSPKWSDRAPKCLLEQFKPCHGLSAPENGARSPEKRLHPAGATIHFSCAPGYVLKGQASIKCVPGHPSHWSDPPPICRAASLDGFYNGRSLDVA
B4: SEZ6 C-terminal fragment generated by BACE1 cleavage (pFU HA-SLIC-Flagx2-mmSEZ6 CTF) (domain or fragment, UniProt Q7TSK2-1 907-991)
chain: DVAKAPAASSALDAAHLAAAIFLPLVAMVLLVGGVYLYFSRFQGKSPLQLPRTHPRPYNRITVESAFDNPTYETGSLSFAGDERI

The binders below were run against GluK2a (myc-tagged GluR6a(Q), from the plasmid pcDNA3.6 mycGluR6a(Q)) (UniProt P42260) (assay: co-IP; HEK293T co-transfected with mycGluR6a(Q) plasmid and SEZ6 constructs; lysis after 72 h in 20 mM HEPES pH 7.4, 150 mM NaCl, 0.5% NP-40, 2 mM EDTA, 10% glycerol; GluK2a precipitated with GluR6/7 antibody on protein G agarose O/N at 4°C; SEZ6 constructs detected with anti-HA.11).
B1 was tested, and the binding was “binds”.
B2 was tested, and the binding was “binds”.
With B3 the binding was “binds”.
For B4, the binding was “no binding”.
